Assay results taken from patent US20150344535A1, “NEUROTROPHIN-TYROSINE KINASE RECEPTOR SIGNALING” (THE UNIVERSITY OF QUEENSLAND, priority 2012, published 2015).
These are yes or no findings as the source states them, for the method shown. In cells and extracts the contact can be indirect. Some binding calls cover weakened binding; strength is not graded here.

Protein sequences, listed by entry. Tags and fused reporters are not part of them. Lines headed by an entry give the natural chain unless they say otherwise; changes in a name come on top. Chains listed by the source or under a name are the forms on record and can include a tag or linker.
TrkB endogenously expressed in the motor neuron-like cell line NSC-34 (P15209, form named): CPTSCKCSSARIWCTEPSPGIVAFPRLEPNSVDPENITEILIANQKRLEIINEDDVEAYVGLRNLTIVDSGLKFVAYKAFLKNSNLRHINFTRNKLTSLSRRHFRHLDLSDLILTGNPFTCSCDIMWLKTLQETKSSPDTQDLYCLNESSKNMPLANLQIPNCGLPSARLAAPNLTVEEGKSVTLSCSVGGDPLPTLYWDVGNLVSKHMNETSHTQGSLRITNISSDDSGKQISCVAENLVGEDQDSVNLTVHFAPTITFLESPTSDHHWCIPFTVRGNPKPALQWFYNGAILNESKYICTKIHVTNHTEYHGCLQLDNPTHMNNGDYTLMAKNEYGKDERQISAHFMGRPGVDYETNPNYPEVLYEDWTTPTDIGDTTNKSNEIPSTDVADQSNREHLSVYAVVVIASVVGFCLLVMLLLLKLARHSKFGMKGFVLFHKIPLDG

Experiments:
[1] = biological target: TrkB endogenously expressed in the motor neuron-like cell line NSC-34 (UniProt P15209); assay: pull-down with biotinylated peptide, Western blot
[2] = biological target: TrkB endogenously expressed in the motor neuron-like cell line NSC-34 (UniProt P15209); assay: pull-down with biotinylated peptide from NSC-34 lysate, Western blot

binding [1]: binds | binding [2]: binds
B1: biotinylated c29 peptide (peptide)
peptide: KRWNSCKQNKQGANSRPVNQTPPPEGEKL
modifications: amino terminus labelled with biotin via a six-carbon spacer
